Measured values reported in PubChem BioAssay (EPA / NIEHS).
This list was built around the results that the source calls inconclusive (neither active nor inactive); the mix of calls is not that of the screen. Potencies of inconclusive entries are doubtful fits and often do not repeat. Active and inactive are the calls of the source. Rule for the calls: active = hit-call score of the fitted dose curve at least 0.9, where 1 is the maximum; inconclusive = response in the unintended direction; inactive = score below 0.9.

These compounds were tested on alkyl and aryl transferase (GSTA2), GSTA2 (gene 2939) (assay: CLD_GSTA2_6hr: CellzDirect (CLD) Gene Expression Assay for alkyl and aryl transferase (GSTA2) at 6 hours (AID 2283666)).
Procedure, shortened: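 Primary human hepatocytes from two donor preparations were dosed daily with fresh compound at multiple concentrations, 0.2% DMSO vehicle. GSTA2 mRNA was measured at 6 hours by qNPA chemiluminescence; induction fitted relative to DMSO, with cytotoxicity flagged morphologically.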

Compound | AC50 | outcome
CCCOC(=O)c1ccc(C(=O)OCCC)nc1 | inconclusive: 1.89 µM | 
CCOC(=O)COc1cc(-n2ncc(C(F)(F)F)c(C)c2=O)c(F)cc1Cl | inconclusive: 20 µM | 
COC(=O)c1ccccc1C(=O)O | inconclusive: 3.35 µM | 
COCCO |  | inactive
c1ccc2[nH]c(-c3cscn3)nc2c1 |  | inactive
